Data: patent US20200093909A1
These are yes or no findings as the source states them, for the method shown. Some results given as binding are weak or reduced against the parent protein; the word gives no strength.

Columns and labels:
[1] = target: circumsporozoite protein (CSP) on the surface of intact P. falciparum sporozoites (Plasmodium falciparum) (UniProt P19597); experiment: flow cytometry staining of SYBR Green I labelled sporozoites
[2] = target: NANP-peptide (Plasmodium falciparum); experiment: ELISA, peptide coated, titrated antibody

B1: MGH3 (antibody, V domains shown)
VH: EVQLVESGGGLVKPGGSLRLSCAASGFTFSSYTMNWVRQAPGKGLEWVSSISSSGSYIYYADSVKGRCTISRDNAKNSLDLQMNSLRAEDAAVYYCARNVLDSSGYPTYFDYWGQGTLVTVSS
VL: DIVMTQSPLSLPVTPGEPASISCRSSQSLLYSNGYNYLDWYVQKPGQSPRLLIYLGSNRASGVPDRFSGSGSGTDFTLRISRVEAEDVGFYYCMQAVQTPLTFGGGTKVEIK
binding [1]: binds

B2: MGU11 (antibody, V domains shown)
VH: QVQLVESGGGVVQPGRSLRLSCVASGFSFSSYGMHWVRQAPGKGLEWVAVIWYDGTNKYYADSVKGRFTISRDNTKNTLYLQMNSLRADDTAMYYCANDIAGWGYDGSNAWGQGTLVTVSS
VL: LSLPVTPGQPASISCKSSQSLVYSDGNTYLNWFQQRPGQSPRRLIYKVSNRDSGVPDRFSGSGSGTDFTLKISRVEAEDVGVYYCMQGTVGFTFGPGTTVDIK
binding [2]: binds
